Source: the supplement of paper PMC12889115
This is one part of the list. These are raw signals, not scaled to a control.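 First-pass screen: polymyxin B was added at a level that permeabilizes the Salmonella outer membrane while sparing the inner membrane. DMSO wells, with and without polymyxin B, defined maximum growth. Because plates differed from one another, each plate's data were ranked separately and the compounds with the lowest OD600 were carried forward as hits.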

Tested on: Salmonella enterica serovar Typhimurium SL1344
Test: bacterial growth OD600 after 18 h with compound and polymyxin B; higher = more bacterial growth (less inhibition)
Details: 50 µM, Mueller-Hinton broth

Row | SMILES | bacterial growth OD600 (polymyxin B 0.75 µg/mL) | bacterial growth OD600 (polymyxin B 1 µg/mL)
1 | COc1ccc2c(C)nc(N3CCCC(C(=O)NCc4cccc(OC)c4OC)C3)nc2c1 (stereo unspecified) | 0.849 | –
2 | CC(=O)N1CCC(NCc2cccnc2Oc2ccccc2)CC1 | 0.818 | –
3 | O=C(c1ccc2c(c1)OCO2)N1CCC(C2(Cc3ccc(F)cc3)NC(=O)N(CC3CC3)C2=O)CC1 (stereo unspecified) | 0.839 | –
4 | c1cnc(N2CCC(C3CCN(CCCn4cccn4)C3)CC2)nc1 (stereo unspecified) | 0.795 | –
5 | O=C(COc1ccccc1)NC1CC(=O)N(Cc2ccccc2C(F)(F)F)C1 (stereo unspecified) | – | 0.891
6 | O=C(NCC(F)(F)F)c1cc(Cn2ccc3ccccc32)[nH]n1 | – | 0.894
7 | Cc1nc(N2CCCC(NCCc3cccs3)CC2)nc2ccc(F)cc12 (stereo unspecified) | 0.568 | –
8 | COC(C(=O)N1CCC(C(Cc2ccccc2)N(C)C(=O)c2ccoc2C)CC1)c1ccccc1 (stereo unspecified) | 0.836 | –
9 | COc1ccc(CC(=O)NCC2CC(Cc3ccc(F)cc3)=NO2)cc1 (stereo unspecified) | 0.866 | –
10 | O=C(c1cc[n+]([O-])cc1)N(CC1CCN(C2Cc3ccccc3C2)CC1)CC1CCCO1 (stereo unspecified) | – | 1
11 | O=C(CCCc1ccccc1)Nc1ccnn1C1CCN(Cc2cc[nH]n2)CC1 | 0.78 | –
12 | O=C(NCCN1CCOCC1)c1ccc(N2CCC(N3CCCC(c4ccccc4)CC3)CC2)cc1 (stereo unspecified) | 0.83 | –
13 | Cc1nn(C)c(C)c1CCC(=O)NCc1nc(-c2ccc(NC(=O)Cc3ccccc3)cc2)oc1C | 0.89 | –
14 | O=C(NCCc1cnccn1)C1CCN(c2nc(-c3ccccc3)nc3c2CCC3)CC1 | 0.818 | –
15 | O=C(NCCn1cccn1)c1cc(Cn2cnc3ccccc32)on1 | – | 1.29
16 | Cc1cc(C)nc(N2C[C@H]3OC(=O)N(CCN4CCCCC4)[C@H]3C2)n1 | – | 1.2

Two entries from above, in CSV form:
Row,SMILES,bacterial growth OD600 (polymyxin B 0.75 µg/mL),bacterial growth OD600 (polymyxin B 1 µg/mL)
9,COc1ccc(CC(=O)NCC2CC(Cc3ccc(F)cc3)=NO2)cc1 (stereo unspecified),0.866,–
10,O=C(c1cc[n+]([O-])cc1)N(CC1CCN(C2Cc3ccccc3C2)CC1)CC1CCCO1 (stereo unspecified),–,1

The listing continues:

Row | SMILES | bacterial growth OD600 (polymyxin B 0.75 µg/mL) | bacterial growth OD600 (polymyxin B 1 µg/mL)
17 | CCC(CC)NC(C)c1cnn(-c2ccc(F)cc2F)c1C (stereo unspecified) | – | 1.01
18 | CN(CCc1nc2ccccc2[nH]1)C(=O)c1cn(Cc2ccccc2Cl)nn1 | – | 0.875
19 | C#CCN(CC=C)C(=O)C1CCC(=O)N(CCc2ccc(OC)cc2)C1 (stereo unspecified) | – | 0.943
20 | COc1ccc(CNC(=O)CCC2(Cc3ccc(F)c(OC)c3)CCC(=O)N2)cc1 (stereo unspecified) | 0.878 | –
21 | Cc1cccc(CNCC2(O)CCCN(Cc3cccc(F)c3F)C2=O)c1 (stereo unspecified) | 0.889 | –
22 | COc1cccc(CC2=NOC(C(=O)N3CCC(C(O)(c4ccccc4)c4ccccc4)CC3)C2)c1 (stereo unspecified) | 0.668 | –
23 | CCCN1CCC(NC2CCCc3nc(N(C)C)ncc32)CC1 (stereo unspecified) | – | 0.996
24 | CCc1ccc(CN(C)C(=O)CCC2(Cc3ccc(OC)cc3F)CCC(=O)N2)cc1 (stereo unspecified) | 1 | –
25 | COc1ccc(CN2CCN(Cc3cnc(C)s3)CC2CCO)c(C)c1C (stereo unspecified) | – | 0.945
26 | O=C(CC1(c2ccccc2)CC(=O)N(Cc2cccs2)C1=O)N1CC[C@@H]2CCCC[C@H]2C1 (stereo partly specified) | 0.579 | –
27 | CC(=O)N[C@@H](C)C(=O)NCc1cccnc1N(C)Cc1ccccc1 | 0.94 | –
28 | CC(=O)c1cccc(OCc2cc(C(=O)N3CCCC3)n[nH]2)c1 | – | 0.959
29 | COc1ccc(C(=O)C2CCCN(C(=O)CCc3ccccc3OC)C2)c(C)c1 (stereo unspecified) | – | 0.049
30 | CN(CC1CCCN(CCc2ccc(Cl)cc2)C1)C(=O)c1cc2ncccn2n1 (stereo unspecified) | – | 0.938
31 | CN(c1ncccc1CNC(=O)Cn1cncn1)C1CCCCC1 | – | 0.929
